PubChem BioAssay AID1224830 | NIAID, 2016

- Test: 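Genes whose knock-down alters the TNF-alpha reporter response to LPS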 (primary screen)
- Cell system: human THP-1 monocytic leukaemia cells, TNF dual-luciferase reporter clone, PMA-differentiated to macrophage-like cells
- Knock-down reagent: siRNA pool against human genes, 50 nM
- Timing: LPS for 4 h, given about 3 days after siRNA transfection
- Conditions: bacterial LPS (TLR4 ligand), 10 ng/ml
- Measurement: 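Ratio of firefly to renilla light, scaled to the plate median and expressed as a robust z-score per replicate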
- Scale: TNF reporter robust z-score: higher = stronger TNF reporter response to LPS
- Active means: 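a well is active when its z-score exceeds 2.8 or falls below -1.5; control wells carry no call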
Here is an unselected part of about 18,000 reagents. About 2,900 of all reagents (16%) were called active. 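Calls are made per well; low scores hint the gene aids the LPS response, high scores that it dampens it.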 Unmarked entries are inactive. Repeated entries: four replicate wells of each siRNA pool.

| Target gene | TNF reporter robust z-score |
| --- | --- |
| ANKS1B (GeneID 56899) | -0.92 |
| ANKS1B (GeneID 56899) | -0.25 |
| ANKS1B (GeneID 56899) | 0 |
| ANKS1B (GeneID 56899) | 0.14 |
| C1QL4 (GeneID 338761) | -0.23 |
| C1QL4 (GeneID 338761) | -0.35 |
| C1QL4 (GeneID 338761) | 0.27 |
| C1QL4 (GeneID 338761) | 0.67 |
| MRPS24 (GeneID 64951) | -1.18 |
| MRPS24 (GeneID 64951) | -1.28 |
| MRPS24 (GeneID 64951) | -1.13 |
| MRPS24 (GeneID 64951) | -0.98 |
| TESC (GeneID 54997) | -0.99 |
| TESC (GeneID 54997) | -0.33 |
| TESC (GeneID 54997) | -0.49 |
| TESC (GeneID 54997) | -0.73 |
| NKX6-3 (GeneID 157848) | 6.43 (active) |
| NKX6-3 (GeneID 157848) | 0.99 |
| NKX6-3 (GeneID 157848) | 1.82 |
| NKX6-3 (GeneID 157848) | -0.28 |
| KCNJ13 (GeneID 3769) | 0.09 |
| KCNJ13 (GeneID 3769) | 1.29 |
| KCNJ13 (GeneID 3769) | 0.27 |
| KCNJ13 (GeneID 3769) | 0.64 |
| APC (GeneID 324) | 0.19 |
| APC (GeneID 324) | 0.39 |
| APC (GeneID 324) | 0.18 |
| APC (GeneID 324) | 0.11 |
| OR52M1 (GeneID 119772) | -0.93 |
| OR52M1 (GeneID 119772) | -0.42 |
| OR52M1 (GeneID 119772) | -0.99 |
| OR52M1 (GeneID 119772) | 0.11 |
| APOBEC3H (GeneID 164668) | 1.69 |
| APOBEC3H (GeneID 164668) | 0.86 |
| APOBEC3H (GeneID 164668) | 0.58 |
| APOBEC3H (GeneID 164668) | 0.76 |
| MAD2L1 (GeneID 4085) | 0.59 |
| MAD2L1 (GeneID 4085) | 0.31 |
| MAD2L1 (GeneID 4085) | 0.13 |
| MAD2L1 (GeneID 4085) | 1.21 |
| FA2H (GeneID 79152) | -0.53 |
| FA2H (GeneID 79152) | -0.71 |
| FA2H (GeneID 79152) | -0.93 |
| FA2H (GeneID 79152) | -0.23 |
| RRS1 (GeneID 23212) | 0.93 |
| RRS1 (GeneID 23212) | 0.2 |
| RRS1 (GeneID 23212) | 0.46 |
| RRS1 (GeneID 23212) | 1.63 |
| OXT (GeneID 5020) | 0.34 |
| OXT (GeneID 5020) | 1.23 |
| OXT (GeneID 5020) | -0.38 |
| OXT (GeneID 5020) | 0.85 |
| GFI1 (GeneID 2672) | -0.26 |
| GFI1 (GeneID 2672) | 0.26 |
| GFI1 (GeneID 2672) | 0.34 |
| GFI1 (GeneID 2672) | 0.55 |
| ZKSCAN3 (GeneID 80317) | 1.19 |
| ZKSCAN3 (GeneID 80317) | 0.44 |
| ZKSCAN3 (GeneID 80317) | 0.37 |
| ZKSCAN3 (GeneID 80317) | 1.7 |
| NCR2 (GeneID 9436) | -1.17 |
| NCR2 (GeneID 9436) | -0.24 |
| NCR2 (GeneID 9436) | -0.47 |
| NCR2 (GeneID 9436) | -0.71 |
| HSPA5 (GeneID 3309) | -1.43 |
| HSPA5 (GeneID 3309) | -0.74 |
| HSPA5 (GeneID 3309) | -1.58 (active) |
| HSPA5 (GeneID 3309) | -1.19 |
| AASDHPPT (GeneID 60496) | 0.91 |
| AASDHPPT (GeneID 60496) | 1.47 |
| AASDHPPT (GeneID 60496) | 1.23 |
| AASDHPPT (GeneID 60496) | 1.95 |
| CTDNEP1 (GeneID 23399) | 0.82 |
| CTDNEP1 (GeneID 23399) | 0.5 |
| CTDNEP1 (GeneID 23399) | 0.39 |
| CTDNEP1 (GeneID 23399) | 2.96 (active) |
| LYRM7 (GeneID 90624) | 0.36 |
| LYRM7 (GeneID 90624) | -0.88 |
| LYRM7 (GeneID 90624) | -0.12 |
| LYRM7 (GeneID 90624) | 1.14 |
| ASCC3 (GeneID 10973) | 0.7 |
| ASCC3 (GeneID 10973) | 1.97 |
| ASCC3 (GeneID 10973) | 0.89 |
| ASCC3 (GeneID 10973) | 1.21 |
| ZNF846 (GeneID 162993) | 0.36 |
| ZNF846 (GeneID 162993) | -0.39 |
| ZNF846 (GeneID 162993) | -0.67 |
| ZNF846 (GeneID 162993) | -0.15 |
| HTR6 (GeneID 3362) | -2.23 (active) |
| HTR6 (GeneID 3362) | -1.74 (active) |
| HTR6 (GeneID 3362) | -1.38 |
| HTR6 (GeneID 3362) | -1.45 |
| KL (GeneID 9365) | -1.01 |
| KL (GeneID 9365) | 0.17 |
| KL (GeneID 9365) | -0.83 |
| KL (GeneID 9365) | 0.06 |
| CREBBP (GeneID 1387) | -1.07 |
| CREBBP (GeneID 1387) | -0.47 |
| CREBBP (GeneID 1387) | -0.58 |
| CREBBP (GeneID 1387) | -0.38 |
| DAZAP2 (GeneID 9802) | 2.77 |
| DAZAP2 (GeneID 9802) | 0.61 |
| DAZAP2 (GeneID 9802) | -0.65 |
| DAZAP2 (GeneID 9802) | -0.22 |
| PPL (GeneID 5493) | -1.86 (active) |
| PPL (GeneID 5493) | -1.64 (active) |
| PPL (GeneID 5493) | -1.35 |
| PPL (GeneID 5493) | -1.58 (active) |
| PCDHGB2 (GeneID 56103) | -0.04 |
| PCDHGB2 (GeneID 56103) | -0.19 |
| PCDHGB2 (GeneID 56103) | -0.36 |
| PCDHGB2 (GeneID 56103) | -0.4 |
| DRC10 (GeneID 115811) | 0.04 |
| DRC10 (GeneID 115811) | 0.11 |
| DRC10 (GeneID 115811) | 0.65 |
| DRC10 (GeneID 115811) | -0.12 |
| PODN (GeneID 127435) | 0.33 |
| PODN (GeneID 127435) | 0.9 |
| PODN (GeneID 127435) | 0.24 |
| PODN (GeneID 127435) | -0.02 |
| CLCNKA (GeneID 1187) | 1.49 |
| CLCNKA (GeneID 1187) | -0.4 |
| CLCNKA (GeneID 1187) | -1.61 (active) |
| CLCNKA (GeneID 1187) | -0.18 |
| PNMA6A (GeneID 84968) | 0.46 |
| PNMA6A (GeneID 84968) | 1.51 |
| PNMA6A (GeneID 84968) | 2.08 |
| PNMA6A (GeneID 84968) | 2.29 |
| METTL2B (GeneID 55798) | -0.02 |
| METTL2B (GeneID 55798) | 0.47 |
| METTL2B (GeneID 55798) | 0.56 |
| METTL2B (GeneID 55798) | -0.42 |
| P2RY1 (GeneID 5028) | 1.51 |
| P2RY1 (GeneID 5028) | 1.67 |
| P2RY1 (GeneID 5028) | 1.01 |
| P2RY1 (GeneID 5028) | 0.64 |
| CWC15 (GeneID 51503) | -0.52 |
| CWC15 (GeneID 51503) | -0.64 |
| CWC15 (GeneID 51503) | 1.21 |
| CWC15 (GeneID 51503) | -0.14 |
